The assay addresses T1, IRF3 (mouse (endogenous in MEFs)), P70671.
T1 chain: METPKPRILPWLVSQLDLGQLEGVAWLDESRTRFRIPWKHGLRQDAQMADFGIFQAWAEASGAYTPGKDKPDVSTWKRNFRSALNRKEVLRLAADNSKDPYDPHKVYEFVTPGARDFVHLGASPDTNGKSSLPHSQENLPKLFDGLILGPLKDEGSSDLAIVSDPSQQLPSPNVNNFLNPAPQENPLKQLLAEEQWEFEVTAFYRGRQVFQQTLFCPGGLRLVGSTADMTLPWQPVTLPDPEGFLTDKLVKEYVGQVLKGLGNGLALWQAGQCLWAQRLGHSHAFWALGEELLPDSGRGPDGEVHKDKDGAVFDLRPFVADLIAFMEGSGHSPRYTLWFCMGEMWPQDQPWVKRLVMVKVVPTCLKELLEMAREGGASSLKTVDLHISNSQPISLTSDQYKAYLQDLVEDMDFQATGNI
In words: native gel or EMSA. As to conditions: remark: other sources report otherwise. For orientation: Mobility shift assays separate free from complexed probe on a gel.

Results are given in words; binding and its absence hold for the method and conditions named. Some binding calls cover weakened binding; strength is not graded here.

B1: IRF3, P70671 1-419 (protein)
chain: METPKPRILPWLVSQLDLGQLEGVAWLDESRTRFRIPWKHGLRQDAQMADFGIFQAWAEASGAYTPGKDKPDVSTWKRNFRSALNRKEVLRLAADNSKDPYDPHKVYEFVTPGARDFVHLGASPDTNGKSSLPHSQENLPKLFDGLILGPLKDEGSSDLAIVSDPSQQLPSPNVNNFLNPAPQENPLKQLLAEEQWEFEVTAFYRGRQVFQQTLFCPGGLRLVGSTADMTLPWQPVTLPDPEGFLTDKLVKEYVGQVLKGLGNGLALWQAGQCLWAQRLGHSHAFWALGEELLPDSGRGPDGEVHKDKDGAVFDLRPFVADLIAFMEGSGHSPRYTLWFCMGEMWPQDQPWVKRLVMVKVVPTCLKELLEMAREGGASSLKTVDLHISNSQPISLTSDQYKAYLQDLVEDMDFQATGNI
As for B1, the binding entry was “binds”.

The values are drawn from PMC5427825.
